Data on one sequence can be found in patent US20230313296.

The chains behind the UniProt entries cited, without tags or fusion partners. Residues count along the entry.
UniProt Q9BRS8, 86-177: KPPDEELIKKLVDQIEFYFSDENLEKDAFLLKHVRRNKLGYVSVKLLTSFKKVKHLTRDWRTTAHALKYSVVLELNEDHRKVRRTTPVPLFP

In this data set the target is LARP6 LA-domain (UniProt Q9BRS8). Briefly: binding assay. The settings on record: G10 substituted with 2-aminopurine; 2AP fluorescence intensity change at saturating LA-domain; p<0.0001; purified recombinant protein; label: 2-aminopurine at position 10.

For at least one entry, the source does not settle the construct or the ends of the probe. The direction of at least one scale is not stated here.

Consider “CCACAAAGAGUCUACAUGUCUAGGGUCUAGACAUGUUCAGCUUUGUGG [fluorescent collagen a1(I) 5'SL]”, for which the binding signal (fold fluorescence increase) turned out to be 2.
